Data taken from PubChem BioAssay AID504749, deposited by NCATS (2011).

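A panel of P. falciparum strains inside erythrocytes is exposed to compounds for three days, then a DNA-binding dye reports the amount of parasite DNA. Each compound was titrated across a series from about 0.000037 to 29 µM. The number is the fitted AC50, the concentration giving a half-maximal change in signal; a lower value means higher potency, whether the curve shows a decrease or an increase. Calls follow the curve class and fit quality: every row here is inconclusive, covering signal-raising curves and weak, poorly fitted, partial or highest-dose-only inhibition curves.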

Values are in µM. Every entry below has the call inconclusive. Only part of the assay is shown, chiefly results filed as inconclusive. Potencies fitted to partial, single-point or poorly fitting curves are rough. Some entries filed as inconclusive have a full curve. The first word of each remark tells which way the curve ran; it can be opposite to the aim of the assay.

{"compound": "C[N+](C)(C)CCOC(=O)C(O)(c1ccccc1)c1ccccc1", "condition": "CP266", "Potency (µM)": "0.0095", "curve": "inhibitor, full curve, poor fit"}
{"compound": "CCC(C(=O)O)C1CCC(C)C(C(C)C(O)C(C)C(=O)C(CC)C2OC3(C=CC(O)[C@@]4(CC[C@](C)(C5CC[C@@](O)(CC)C(C)O5)O4)O3)C(C)CC2C)O1", "stereo": "stereo partly specified", "condition": "DIV14", "Potency (µM)": "0.9528", "curve": "inhibitor, full curve, poor fit"}
{"compound": "NC(=O)NO", "condition": "DIV14", "Potency (µM)": "0.0085", "curve": "inhibitor, partial curve, poor fit"}
{"compound": "CCOc1ccccc1OCCN[C@H](C)Cc1ccc(OC)c(S(N)(=O)=O)c1", "condition": "W2", "Potency (µM)": "19.01", "curve": "inhibitor, single point"}
{"compound": "C[C@H](CCC(=O)O)[C@H]1CC[C@@H]2[C@@H]3[C@@H](O)C[C@H]4C[C@@H](O)CC[C@@]4(C)[C@H]3CC[C@@]21C", "condition": "SC27B", "Potency (µM)": "3.548", "curve": "inhibitor, partial curve"}
{"compound": "Nc1c(CC(=O)O)cccc1C(=O)c1ccc(Br)cc1", "condition": "CP297", "Potency (µM)": "2.393", "curve": "inhibitor, single point"}
{"compound": "C[C@]12C=CC(=O)C=C1CC[C@@H]1[C@@H]2C(=O)C[C@@]2(C)[C@H]1CC[C@]2(O)C(=O)CO", "condition": "TAB113", "Potency (µM)": "17.78", "curve": "inhibitor, single point"}
{"compound": "c1ccc2sc(SSc3nc4ccccc4s3)nc2c1", "condition": "CP266", "Potency (µM)": "0.5358", "curve": "activator, partial curve, poor fit"}
{"compound": "CN(C)/N=N/c1nc[nH]c1C(N)=O", "condition": "CP335", "Potency (µM)": "4.256", "curve": "inhibitor, single point"}
{"compound": "CN(C)/N=N/c1nc[nH]c1C(N)=O", "condition": "CP256", "Potency (µM)": "17.78", "curve": "inhibitor, single point"}
{"compound": "O=C(NCNC(=O)NC1C(=O)NC(=O)N1CO)NC1C(=O)NC(=O)N1CO", "stereo": "stereo unspecified", "condition": "CP268", "Potency (µM)": "0.0005", "curve": "activator"}
{"compound": "CC(C)Cc1ccc([C@@H](C)C(=O)NS(C)(=O)=O)cc1", "condition": "TAB109", "Potency (µM)": "3.981", "curve": "inhibitor, single point"}
{"compound": "Cc1cc(N)c2ccccc2[n+]1CCCCCCCCCC[n+]1c(C)cc(N)c2ccccc21", "condition": "CP266", "Potency (µM)": "1.282", "curve": "activator"}
{"compound": "Cc1cc(N)c2ccccc2[n+]1CCCCCCCCCC[n+]1c(C)cc(N)c2ccccc21", "condition": "CP335", "Potency (µM)": "0.7208", "curve": "activator"}
{"compound": "CN[C@@H]1[C@H](O[C@@H]2O[C@H](CO)[C@@H](N)[C@H](O)[C@@H]2O)O[C@H]2C[C@@H](N)[C@@H](O[C@H]3[C@@H](O)[C@H](O)[C@H](N)C[C@@H]3N)O[C@H]2[C@H]1O", "condition": "CP192", "Potency (µM)": "0.0002", "curve": "activator, full curve"}
{"compound": "C#C[C@]1(O)CC[C@H]2[C@@H]3CCc4cc(OC5CCCC5)ccc4[C@H]3CC[C@@]21C", "condition": "W2", "Potency (µM)": "15.1", "curve": "inhibitor, single point"}
{"compound": "CCCCCCCC(=O)OCC(COC(=O)CCCCCCC)OC(=O)CCCCCCC", "condition": "CP266", "Potency (µM)": "4.256", "curve": "inhibitor, single point"}
{"compound": "CCCCCCCC(=O)OCC(COC(=O)CCCCCCC)OC(=O)CCCCCCC", "condition": "parasite line B", "Potency (µM)": "17.78", "curve": "inhibitor, single point"}
{"compound": "CC(=O)NCCCS(=O)(=O)O", "condition": "CP260", "Potency (µM)": "12.59", "curve": "inhibitor, single point"}
{"compound": "NC(=O)c1cccnc1", "condition": "CP266", "Potency (µM)": "3.793", "curve": "inhibitor, single point"}
{"compound": "NC(=O)c1cccnc1", "condition": "DIV14", "Potency (µM)": "13.46", "curve": "activator, single point"}
{"compound": "CCCCC(C)(O)C/C=C/[C@H]1[C@H](O)CC(=O)[C@@H]1CCCCCCC(=O)OC", "stereo": "stereo partly specified", "condition": "W2", "Potency (µM)": "1.901", "curve": "inhibitor, partial curve, poor fit"}

2 of the entries, repeated:

| Compound | condition | Potency (µM) | curve |
|---|---|---|---|
| `CCC(C(=O)O)C1CCC(C)C(C(C)C(O)C(C)C(=O)C(CC)C2OC3(C=CC(O)[C@@]4(CC[C@](C)(C5CC[C@@](O)(CC)C(C)O5)O4)O3)C(C)CC2C)O1` (stereo partly specified) | DIV14 | 0.9528 | inhibitor, full curve, poor fit |
| `CN(C)/N=N/c1nc[nH]c1C(N)=O` | CP335 | 4.256 | inhibitor, single point |